According to patent US20160009782A1:
Results are given in words; binding and its absence hold for the method and conditions named. Binding can be weak; no strength is given.

What was measured:
[1] = biological target: T1, endogenous mouse PirB (cortical neurons and brain extracts) (mouse) (UniProt P97484); assay: immunoprecipitation of PirB from mouse forebrain lysate (P30), Western blot for PP2B
T1 sequence: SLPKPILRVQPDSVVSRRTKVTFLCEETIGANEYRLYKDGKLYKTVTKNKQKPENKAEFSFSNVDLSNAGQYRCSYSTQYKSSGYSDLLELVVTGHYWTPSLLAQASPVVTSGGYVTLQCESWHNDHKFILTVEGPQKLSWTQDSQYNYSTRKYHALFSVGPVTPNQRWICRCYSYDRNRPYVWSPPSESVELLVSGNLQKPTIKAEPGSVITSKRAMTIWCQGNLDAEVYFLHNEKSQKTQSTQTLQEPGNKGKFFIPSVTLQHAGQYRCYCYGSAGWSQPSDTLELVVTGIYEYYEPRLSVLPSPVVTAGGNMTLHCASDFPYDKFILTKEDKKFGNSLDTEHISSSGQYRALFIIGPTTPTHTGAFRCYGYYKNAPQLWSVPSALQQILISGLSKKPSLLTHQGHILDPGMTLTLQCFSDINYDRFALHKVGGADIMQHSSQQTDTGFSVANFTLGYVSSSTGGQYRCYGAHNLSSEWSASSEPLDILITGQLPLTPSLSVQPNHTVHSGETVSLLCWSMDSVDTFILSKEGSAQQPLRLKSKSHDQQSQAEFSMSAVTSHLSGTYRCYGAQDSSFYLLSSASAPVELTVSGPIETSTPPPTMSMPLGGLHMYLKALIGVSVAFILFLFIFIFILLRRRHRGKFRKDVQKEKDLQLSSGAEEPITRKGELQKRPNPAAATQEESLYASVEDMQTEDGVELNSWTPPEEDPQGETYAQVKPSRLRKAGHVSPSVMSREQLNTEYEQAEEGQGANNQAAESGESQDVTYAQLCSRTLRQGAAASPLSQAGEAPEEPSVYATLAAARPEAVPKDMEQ

[2] = biological target: T1, endogenous mouse PirB (cortical neurons and brain extracts) (mouse); assay: immunoprecipitation of PirB from mouse forebrain lysate (P30), Western blot for PP2C

binding [1]	binding [2]	Substance
binds	–	protein phosphatase PP2B/calcineurin (endogenous, mouse forebrain) (enzyme)
–	binds	protein phosphatase PP2C (endogenous, mouse forebrain) (enzyme)
